Test results reported in PMC7052939.
No constants are given. Whether binding was seen depends on the method and setting. In cells and extracts the contact can be indirect. Binding calls can cover weak binding; strength is not graded here.

Molecular target: T1, ITGB7 (human (endogenous in MHCC-LM3 and Bel-7402)) (UniProt P26010)
T1 sequence: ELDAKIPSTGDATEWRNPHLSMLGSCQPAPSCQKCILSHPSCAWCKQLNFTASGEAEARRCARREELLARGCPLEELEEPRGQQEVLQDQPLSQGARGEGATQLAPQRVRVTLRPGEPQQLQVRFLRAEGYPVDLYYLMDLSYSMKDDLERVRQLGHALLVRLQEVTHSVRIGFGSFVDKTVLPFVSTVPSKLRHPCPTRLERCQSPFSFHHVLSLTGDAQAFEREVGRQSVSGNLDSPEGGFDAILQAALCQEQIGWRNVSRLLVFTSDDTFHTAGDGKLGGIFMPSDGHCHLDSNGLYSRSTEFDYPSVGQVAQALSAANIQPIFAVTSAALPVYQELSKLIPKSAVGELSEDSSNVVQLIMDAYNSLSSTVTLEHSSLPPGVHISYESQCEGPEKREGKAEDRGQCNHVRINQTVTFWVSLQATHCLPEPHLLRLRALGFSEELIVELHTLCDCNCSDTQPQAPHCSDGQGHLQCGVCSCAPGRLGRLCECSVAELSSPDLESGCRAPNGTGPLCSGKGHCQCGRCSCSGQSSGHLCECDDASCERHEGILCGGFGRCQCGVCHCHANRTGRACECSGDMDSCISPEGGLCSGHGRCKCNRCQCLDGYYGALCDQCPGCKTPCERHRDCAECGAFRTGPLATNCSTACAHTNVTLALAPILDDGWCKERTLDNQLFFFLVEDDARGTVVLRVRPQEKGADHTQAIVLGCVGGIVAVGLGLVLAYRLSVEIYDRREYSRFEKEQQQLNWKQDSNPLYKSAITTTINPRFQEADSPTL
Test: co-IP; endogenous proteins in MHCC-LM3 and Bel-7402 lysates (NP-40 lysis buffer, PMSF); pre-cleared with Protein A+G Agarose; 2 micrograms primary antibody overnight at 4°C; Protein A+G Agarose 3 hours at 4°C; washed five times with PBS; Western blot

binding: binds
Substance: VEGF (human (endogenous in MHCC-LM3))
